The values are deposited in ChEMBL (CHEMBL3988442, “University of Dundee, Small-Polar-MMV Screening Library” (2021)).

Chains of the proteins cited; added tags and fusions are not shown. Residues count along the entry.
UniProt P9WNZ1, whole entry: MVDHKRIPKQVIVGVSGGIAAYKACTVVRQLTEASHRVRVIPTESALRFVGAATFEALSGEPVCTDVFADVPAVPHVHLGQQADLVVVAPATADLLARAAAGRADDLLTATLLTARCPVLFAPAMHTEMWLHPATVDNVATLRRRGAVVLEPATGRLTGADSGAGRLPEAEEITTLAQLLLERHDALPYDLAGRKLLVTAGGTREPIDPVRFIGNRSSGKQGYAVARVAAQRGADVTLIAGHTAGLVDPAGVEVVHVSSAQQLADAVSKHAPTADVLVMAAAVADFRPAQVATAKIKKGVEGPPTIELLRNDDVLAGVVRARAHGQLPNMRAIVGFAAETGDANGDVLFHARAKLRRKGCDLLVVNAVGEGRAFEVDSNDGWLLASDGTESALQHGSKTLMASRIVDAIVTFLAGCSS
UniProt P9WFT3, whole entry: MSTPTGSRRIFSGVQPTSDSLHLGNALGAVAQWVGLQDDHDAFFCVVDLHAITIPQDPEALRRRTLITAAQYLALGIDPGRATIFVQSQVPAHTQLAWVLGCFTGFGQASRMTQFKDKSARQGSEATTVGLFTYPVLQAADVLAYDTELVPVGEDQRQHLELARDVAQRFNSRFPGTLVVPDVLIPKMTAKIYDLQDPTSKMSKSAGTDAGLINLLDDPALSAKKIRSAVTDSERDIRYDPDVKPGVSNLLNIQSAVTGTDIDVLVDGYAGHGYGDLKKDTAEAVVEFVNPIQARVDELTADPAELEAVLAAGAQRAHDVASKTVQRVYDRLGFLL
UniProt A4I591, 1-473: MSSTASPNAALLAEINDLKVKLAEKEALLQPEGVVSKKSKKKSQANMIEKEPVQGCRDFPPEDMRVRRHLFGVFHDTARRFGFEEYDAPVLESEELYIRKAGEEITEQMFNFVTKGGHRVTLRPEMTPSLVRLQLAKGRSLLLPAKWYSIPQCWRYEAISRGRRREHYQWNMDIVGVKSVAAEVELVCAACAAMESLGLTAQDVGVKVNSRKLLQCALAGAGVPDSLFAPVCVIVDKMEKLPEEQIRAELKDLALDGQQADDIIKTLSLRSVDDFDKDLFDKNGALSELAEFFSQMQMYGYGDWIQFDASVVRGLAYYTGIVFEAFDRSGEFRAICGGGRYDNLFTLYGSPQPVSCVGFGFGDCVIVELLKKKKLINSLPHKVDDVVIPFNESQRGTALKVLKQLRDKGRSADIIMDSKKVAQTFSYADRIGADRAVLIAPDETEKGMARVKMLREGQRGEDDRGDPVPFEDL

CoaBC: 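Enzyme assay of CoaBC with a phosphate dye (Biomol Green) read at 650 nm. Target: Coenzyme A biosynthesis protein CoaBC, Mycobacterium tuberculosis (UniProt P9WNZ1). Compounds at 30 µM. Direction is inferred from only a few compounds that gave an IC50; most scored high, so higher reads as stronger inhibition. Most strong results did not repeat in a second test. Of about 67,000 compounds tested this way, about 40 (0.06%) reached 50% or more in at least one test.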
Toxoplasma: 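Assay of Toxoplasma gondii numbers, read through their beta-galactosidase reporter with a colour substrate. Tested at 10 µM. The record gives no direction; the compounds picked for IC50 retests had high values, so higher reads as fewer parasites. About 67,000 compounds were tested under these conditions; 0.38% (about 260) showed 50% or more at least once.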
Leishmania in macrophages: 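Cell assay of Leishmania donovani living inside macrophages; the read-out is not stated. Tested at 30 µM. Higher reads as stronger inhibition (inferred: compounds with an IC50 in retests scored well above the rest). About 69,000 compounds were tested under these conditions; 1.5% (about 1,000) showed 50% or more at least once.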
MtTrpRS: 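Tryptophan-tRNA ligase, Mycobacterium tuberculosis (UniProt P9WFT3). Enzyme assay of tryptophanyl-tRNA synthetase; the read-out is not stated. Compounds at 10 µM. Direction is not recorded; retested compounds ran higher, which suggests that high means inhibition. Of about 65,000 compounds tested this way, about 64 (0.098%) reached 50% or more in at least one test.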
LiHisRS: 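Histidine-tRNA ligase, Leishmania infantum (UniProt A4I591). Enzyme assay of histidyl-tRNA synthetase; the read-out is not stated. Tested at 30 µM. Higher reads as stronger inhibition (inferred: compounds with an IC50 in retests scored well above the rest). The assay is labelled LdHisRS but filed under L. infantum. Of about 69,000 compounds tested this way, about 410 (0.6%) reached 50% or more in at least one test.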

Each number is a percent effect as filed.
How 0% and 100% were set is not recorded. Most values in the screen are low, and negative values occur.
Compounds were drawn at random from those tested, without regard to their results.
Two or more numbers in one place are separate tests of the same structure; such repeats can differ widely.
A dash means the value is not listed here; it may have been measured.

* CN1CCNC(Cc2ccc(-c3ccccc3)cc2)C1=O (stereo unspecified) : CoaBC: 1.217%; Toxoplasma: -7.485%; Leishmania in macrophages: -1.534% & 8.853%; MtTrpRS: -44.46%; LiHisRS: -5.263%
* NC(=O)CN1CCCC(C(=O)N2CCC(O)(Cc3ccccc3)CC2)C1 (stereo unspecified) : CoaBC: 10.12%; Toxoplasma: 2.989%; Leishmania in macrophages: 4.37%; MtTrpRS: 3.311%; LiHisRS: 19.78%
* COC1CCCN(C(=O)NCc2ccc(C(=O)N(C)C(C)C)cc2)C1 (stereo unspecified) : CoaBC: 8.845%; Toxoplasma: -1.722%; Leishmania in macrophages: -22.5%; MtTrpRS: -2.016%; LiHisRS: 10.32%
* O=C(O)C(F)(F)F.O=C(O)C(F)(F)F.[H][C@@]12COC[C@]1(COCc1ccncc1)CN(Cc1cccs1)C2 : Toxoplasma: -2.591%; Leishmania in macrophages: -33.13%
* CN1CCN(CCCNC(=O)c2nc3ccccc3c(=O)[nH]2)CC1 : CoaBC: 1.768%; Toxoplasma: 6.892%; Leishmania in macrophages: 13.67%; MtTrpRS: -2.591%; LiHisRS: 15.79%
* CS(=O)(=O)N1CCC2(CC1)CN(CC1CC1)CC21CCNC1=O (stereo unspecified) : CoaBC: 3.308%; MtTrpRS: -3.314%; LiHisRS: 13.59%
* CC(C)CN1CCN(C(=O)Nc2cc(C(F)(F)F)c[nH]c2=O)CC1 : CoaBC: 1.205%; Toxoplasma: -1.906%; Leishmania in macrophages: 10.43%; MtTrpRS: -3.118%; LiHisRS: -43.84%
* O=C(O)c1cccc(CC2CCN(c3ncc(F)cn3)CC2)c1 : CoaBC: 18.69%; Toxoplasma: 1.701%; Leishmania in macrophages: 4.9%; MtTrpRS: 2.974%; LiHisRS: 17.11%
* Cn1ccc(C(=O)N2CCCC2c2[nH]ncc2C(N)=O)n1 (stereo unspecified) : CoaBC: 4.136%; Toxoplasma: -5.685%; Leishmania in macrophages: 10.74% & 18.07%; MtTrpRS: 5.623%; LiHisRS: 1.053%
* c1cnc(N2CCCn3nnc(COCC4CC4)c3C2)nc1 : MtTrpRS: -1.26%; LiHisRS: 18.8%
* CCOC1COC2(CCN(C(=O)c3cccc(C)n3)CC2)C1.O=C(O)C(F)(F)F (stereo unspecified) : Toxoplasma: 20.6%; Leishmania in macrophages: -2.885%
* [H][C@@]12CCN(C(=O)c3cccnc3OC)C[C@@]1([H])O[C@@H](c1noc(C)n1)C2 : Toxoplasma: -9.588%; Leishmania in macrophages: 1.529%
* Cc1cc(C)n(CC2CN(Cc3noc(C)n3)CCO2)n1 (stereo unspecified) : CoaBC: -10.19%; Toxoplasma: 22.27%; Leishmania in macrophages: -26.17%; MtTrpRS: 18.68%; LiHisRS: 3.419%
* Cn1ccc(CN2CCC3(CC2)CC(Nc2cnccn2)CO3)n1 (stereo unspecified) : MtTrpRS: 2.81%; LiHisRS: 1.709%

Once more, the final 2:

| SMILES | CoaBC | Toxoplasma | Leishmania in macrophages | MtTrpRS | LiHisRS |
|---|---|---|---|---|---|
| `Cc1cc(C)n(CC2CN(Cc3noc(C)n3)CCO2)n1` (stereo unspecified) | -10.19 | 22.27 | -26.17 | 18.68 | 3.419 |
| `Cn1ccc(CN2CCC3(CC2)CC(Nc2cnccn2)CO3)n1` (stereo unspecified) | - | - | - | 2.81 | 1.709 |